Values quoted from earlier work, collected in patent US11116748B2, “Compositions and methods for reducing weight gain” (THE MEDICAL COLLEGE OF WISCONSIN, INC., priority 2018, dated 2021).

Tested on: gut microbiome
Conditions: risperidone treatment; cited from earlier work

SMILES: Cc1nc2n(c(=O)c1CCN1CCC(c3noc4cc(F)ccc34)CC1)CCCC2 [risperidone]
- observed taxa in the gut microbiome: overall reduction in observed taxa
